## Screening data

From PubChem BioAssay record AID2202234 (NCATS, 2025).

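The 48-hour survival of the MECOM-rearranged AML line HNT-34 was tracked by a luminescent ATP-based reagent.
Each compound was run as a dilution series that mostly topped out at 46 µM.
The value is the concentration giving half of the fitted maximal loss of viability; smaller values mean stronger inhibitors.
Calls come from the fitted dose curve, and inconclusive marks inhibition that is small, poorly fitted or seen only at the highest dose.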

Values are in µM.
All entries here are filed as inconclusive.
Only part of the assay is shown, chiefly results filed as inconclusive.
Potencies fitted to partial, single-point or poorly fitting curves are rough.
Some entries filed as inconclusive have a full curve.

structure,potency (µM),curve
Cc1cc(OCc2nnc(SC3CCCC3)n2-c2cccnc2)ccc1-c1ccc(S(C)(=O)=O)cc1,5.254,"inhibitor, full curve, poor fit"
COc1cc2c(NC3CCN(CC4CCCCC4)CC3)nc(N3CCCN(C(C)C)CC3)nc2cc1OCCCN1CCCCC1,16.62,"inhibitor, partial curve"
CC[C@H](CO)Nc1nc(NCc2ccccc2)c2ncn(C(C)C)c2n1,33.15,"inhibitor, single point"
[2H]C([2H])(Nc1nc(-c2ccccc2C([2H])(C([2H])([2H])[2H])C([2H])([2H])[2H])ncc1C)c1ccc(-n2ccnn2)cc1,23.47,"inhibitor, single point"
CCOC(=O)C1=C(C)NC2=C(C(=O)CC(C)(C)C2)C1c1ccc(-c2ccccc2)cc1 (centres undefined),37.2,"inhibitor, single point"
C/C=C/C[C@@H](C)C(=O)[C@H]1C(=O)N[C@@H](C(C)C)C(=O)N(C)CC(=O)N(C)[C@@H](CC(C)C)C(=O)N[C@@H](C(C)C)C(=O)N(C)[C@@H](CC(C)C)C(=O)N[C@@H](C)C(=O)N[C@H](C)C(=O)N(C)[C@@H](CC(C)C)C(=O)N(C)[C@@H](CC(C)C)C(=O)N(C)[C@@H](C(C)C)C(=O)N1C,7.232,"inhibitor, partial curve"
Cc1ccc(-c2cc(C(F)(F)F)nn2-c2ccc(S(N)(=O)=O)cc2)cc1,23.47,"inhibitor, single point"
COc1cccc2c1CCCC2CCCN1CCN(C2CCCCC2)CC1 (centres undefined),33.15,"inhibitor, single point"
Nc1nc(-c2nn(Cc3ccccc3F)c3ncccc23)ncc1C1CC1,29.55,"inhibitor, single point"
Cc1ccc(C(=O)Nc2ccc(Oc3cc4cnn(C)c4cc3-c3cn[nH]c3)c(F)c2)c(=O)n1-c1ccc(F)cc1,9.344,"inhibitor, full curve"
O=C(c1ccc(OCCN2CCCCC2)cc1)c1c(-c2ccc(O)cc2)sc2cc(O)ccc12,26.33,"inhibitor, single point"
O=c1[nH]c2ccccc2n1C1CCN(Cc2ccc(-c3[nH]c4cc5ncnc5cc4nc3-c3ccccc3)cc2)CC1,13.2,"inhibitor, partial curve"
CCCCCCCc1ccc(CCc2cccc(O)c2C(=O)O)cc1,29.55,"inhibitor, single point"
OCCC#Cc1nc(-c2ccc(F)cc2)c(-c2ccncc2)n1CCCc1ccccc1,23.47,"inhibitor, single point"
Cc1ccc(S(=O)(=O)Nc2cc(-c3ccc(C#N)s3)ccc2C)cc1,0.0468,"inhibitor, full curve"
COC1=C2C[C@H](C)C[C@H](OC)[C@H](O)[C@@H](C)/C=C(/C)[C@H](OC(N)=O)[C@@H](OC)/C=C\C=C(\C)C(=O)NC(=CC1=O)C2=O,8.328,"inhibitor, full curve, poor fit"
CCCCC[C@H](O)C=C[C@H]1[C@H](O)CC(=O)[C@H]1CC=CCCCC(=O)O,18.64,"inhibitor, partial curve"
CCN(CC)CCOc1ccc(Cc2ccccc2)cc1,20.92,"inhibitor, partial curve, poor fit"
Cc1nc2ccc(C(=O)N3CCC4(CC3)CC(=O)c3c(cnn3C(C)C)C4)cc2[nH]1,18.64,"inhibitor, single point"
CCc1cnn2c(NCc3ccc[n+]([O-])c3)cc(N3CCCC[C@H]3CCO)nc12,0.0263,"inhibitor, full curve"
Cc1cc(C(=O)N2CCN(c3cccc(Cl)c3)CC2)n(-c2ccccc2)n1,3.315,"inhibitor, full curve"
CCCNCC(O)COc1ccccc1C(=O)CCc1ccccc1 (centres undefined),37.2,"inhibitor, single point"
Cc1cccc(CN2CCN(C(c3ccccc3)c3ccc(Cl)cc3)CC2)c1 (centres undefined),37.2,"inhibitor, partial curve, poor fit"
CCOC(CN1C(=O)[C@](CC(=O)Nc2ccc(C)cc2)(NC(=O)Nc2ccc(C)cc2)c2ccccc21)OCC,26.33,"inhibitor, single point"
CO[C@H]1/C=C/O[C@@]2(C)Oc3c(C)c(O)c4c(O)c(c(/C=N\N5CCN(C6CCCC6)CC5)c(O)c4c3C2=O)NC(=O)/C(C)=C\C=C\[C@H](C)[C@H](O)[C@@H](C)[C@@H](O)[C@@H](C)[C@H](OC(C)=O)[C@@H]1C,26.33,"inhibitor, single point"
COc1c(C)cnc(Cn2cnc3c(Cl)nc(N)nc32)c1C,0.4174,"inhibitor, full curve"
CCCCn1c(=O)n(Cc2ccccc2F)c(=O)c2[nH]c(Cc3ccc(NC(C)=O)cc3)nc21,33.15,"inhibitor, single point"
COc1ccc2cc(-c3nc(-c4ccc(S(C)=O)cc4)[nH]c3-c3ccncc3)ccc2c1 (centres undefined),37.2,"inhibitor, single point"
CCCCC(C)(C)[C@H](O)C=C[C@H]1[C@H](O)CC(=O)[C@H]1CC=CCCCC(=O)O,5.254,"inhibitor, partial curve, poor fit"
Cc1cc2c(F)c(Oc3ncnn4cc(OCC(C)OC(=O)C(C)N)c(C)c34)ccc2[nH]1 (centres undefined),23.47,"inhibitor, partial curve"
Cc1cnc(-c2cnc(NCCNc3ccc(C#N)cn3)nc2-c2ccc(Cl)cc2Cl)[nH]1,14.81,"inhibitor, partial curve"
COC1=C(OC)C(=O)C(CCCCCCCCCCO)=C(C)C1=O,20.92,"inhibitor, single point"
O=c1[nH]c([C@@H]2CCCN2)nc2c1oc1ccc(Cl)cc12,13.2,"inhibitor, partial curve"
COc1cccc2c1C(=O)c1c(O)c3c(c(O)c1C2=O)C[C@@](O)(C(=O)CO)C[C@@H]3O[C@H]1C[C@H](N)[C@H](O)[C@H](C)O1,0.132,"inhibitor, full curve"
Cc1cc(Nc2ncnc3ccc(NC4=NC(C)(C)CO4)cc23)ccc1Oc1ccn2ncnc2c1,29.55,"inhibitor, single point"
CCC(=O)N[C@H]1CC[C@H](C(=O)N(C)c2ccc(-c3nc4ccccc4o3)cc2)C1,20.92,"inhibitor, single point"
CCCCCCOC(=O)NC(=N)c1ccc(NCc2nc3cc(C(=O)N(CCC(=O)OCC)c4ccccn4)ccc3n2C)cc1,23.47,"inhibitor, partial curve"
CCNCCS(=O)(=O)NC[C@@]1(c2ccccc2)SC(NC(=O)C(C)(C)C)=NN1C(=O)C(C)(C)C,0.0017,"inhibitor, full curve"

5 of the entries, repeated:

| structure | potency (µM) | curve |
|---|---|---|
| `Cc1cnc(-c2cnc(NCCNc3ccc(C#N)cn3)nc2-c2ccc(Cl)cc2Cl)[nH]1` | 14.81 | inhibitor, partial curve |
| `Cc1cccc(CN2CCN(C(c3ccccc3)c3ccc(Cl)cc3)CC2)c1` (centres undefined) | 37.2 | inhibitor, partial curve, poor fit |
| `CCCCCCCc1ccc(CCc2cccc(O)c2C(=O)O)cc1` | 29.55 | inhibitor, single point |
| `CCN(CC)CCOc1ccc(Cc2ccccc2)cc1` | 20.92 | inhibitor, partial curve, poor fit |
| `C/C=C/C[C@@H](C)C(=O)[C@H]1C(=O)N[C@@H](C(C)C)C(=O)N(C)CC(=O)N(C)[C@@H](CC(C)C)C(=O)N[C@@H](C(C)C)C(=O)N(C)[C@@H](CC(C)C)C(=O)N[C@@H](C)C(=O)N[C@H](C)C(=O)N(C)[C@@H](CC(C)C)C(=O)N(C)[C@@H](CC(C)C)C(=O)N(C)[C@@H](C(C)C)C(=O)N1C` | 7.232 | inhibitor, partial curve |